These results are taken from paper PMC7699381, “Rare-Earth Metal Complexes of the Antibacterial Drug Oxolinic Acid: Synthesis, Characterization, DNA/Protein Binding and Cytotoxicity Studies” (Molecules, 2020).

The test system of this series is EB-DNA system (CT-DNA). Briefly: Competitive binding assay with ethidium bromide (EB) through fluorescence spectroscopy. Particulars: modified Hill fit. Details: species or system calf. An excerpt:
The manner of binding to the DNA macromolecule can be investigated through competitive binding studies with ethidium bromide (3,8-diamino-5-ethyl-6-phenylphenanthridinium bromide), a fluorescent dye; due to its aromatic ring, it can intercalate between two adjacent base pairs in the DNA structure and form a complex which emits fluorescent light; displacing EB results in a quenching effect. The Stern-Volmer constant (KSV) and the dissociation constant (K50) have been calculated from the resulting data.
Competitive binding studies were carried out on a Jasco FP 6500 fluorometer at room temperature, using quartz cells of 1 cm path-length. The fluorescence spectra were recorded on 1.6 mL samples containing 10 µM CT-DNA and 2 µM EB in the absence and presence of increasing amounts (0–40 µM with an increment of 5 µM) of complexes and free ligands, respectively, after being kept in contact for 10 min at room temperature, under continuous stirring and in the dark. The excitation wavelength used was 500 nm and the spectra was recorded in the 520–800 nm range. Two control samples were used, the first one containing DMSO, DNA and EB and the second one just the complex.
Data from the assay can be interpreted using the classical Stern-Volmer equation (Equation (3)):(3) F0/F=1+ KSV·[Q] where F0 and F are the fluorescence intensities of the EB-DNA samples in the absence and presence of the tested compounds and [Q] is the concentration of the compound; KSV is the Stern-Volmer constant and can be calculated from the plot of F0/F vs. [Q] as the slope.
The ratio of binding relative to the control sample exposed only to DMSO was plotted against the logarithm of concentration. The data points were fitted using the modified Hill function with offset (Origin®) (Equation (4)):(4) y=A1+(A2−A1)×x^n/K50^n+x^n where y is the ratio of binding (F/F0) and x is the concentration, A1 is the minimum of y values, A2 is the maximum of y values, K50 is the concentration corresponding to 50% binding and n is the Hill coefficient.
`CCn1cc(C(=O)[O][La]([OH])[O]C(=O)c2cn(CC)c3cc4c(cc3c2=O)OCO4)c(=O)c2cc3c(cc21)OCO3.O` [La oxo, [La(oxo)(OH)(H2O)]]: the “n (Hill coefficient, EB Displacement Assay)” value worked out at 3.44 ± 0.94.

Regarding [Gd(oxo)(OH)(H2O)]·0.5H2O [Gd oxo], the “n (Hill coefficient, EB Displacement Assay)” value is on record as 1.66 ± 0.47.

For `CCn1cc(C(=O)[O][Y]([OH])[O]C(=O)c2cn(CC)c3cc4c(cc3c2=O)OCO4)c(=O)c2cc3c(cc21)OCO3.O` [Y oxo, [Y(oxo)(OH)(H2O)]], the “n (Hill coefficient, EB Displacement Assay)” value turned out to be 1.92 ± 0.45.

Turning to `CCn1cc(C(=O)[O][Sm]([OH])[O]C(=O)c2cn(CC)c3cc4c(cc3c2=O)OCO4)c(=O)c2cc3c(cc21)OCO3.O.O` [Sm oxo, [Sm(oxo)(OH)(H2O)] · H2O], the “n (Hill coefficient, EB Displacement Assay)” value stood at 2.44 ± 0.82.

For `CCn1cc(C(=O)O)c(=O)c2cc3c(cc21)OCO3` [oxo, 5-ethyl-5,8-dihydro-8-oxo-l,3 dioxolo[4,5-g]quinoline-7-carboxylic acid, reference compound], the “n (Hill coefficient, EB Displacement Assay)” value is given as 2.98 ± 1.14.

With `CCn1cc(C(=O)[O][Eu]([OH])[O]C(=O)c2cn(CC)c3cc4c(cc3c2=O)OCO4)c(=O)c2cc3c(cc21)OCO3.O` [Eu oxo, [Eu(oxo)(OH)(H2O)]], the “n (Hill coefficient, EB Displacement Assay)” value is given as 2.65 ± 0.73.

Regarding [Tb(oxo)(OH)(H2O)] · 0.5 H2O [Tb oxo], the “n (Hill coefficient, EB Displacement Assay)” value is listed as 2.68 ± 0.19.
